According to PMC8753592, “Long-acting capsid inhibitor protects macaques from repeat SHIV challenges” (Nature, 2021):
Several values for one entry are separate records, joined by “and”; a condition that tells them apart may be missing. Identical values can stand only once. The source gives many values for each of these; only a part stands here.

Assay: Plasma GS-CA1 pharmacokinetics in the repeat SHIV challenge study
Format: in vivo, rhesus macaques of Indian origin
Protocol: For the challenge study, 24 outbred rhesus macaques of Indian origin were assigned to the three study groups with even sex and weight distributions. All animals were housed at Alpha Genesis (Yemassee, SC), and all procedures were conducted in compliance with all relevant local, state and federal regulations and were approved by the Alpha Genesis IACUC. […] The injection sites were monitored daily by veterinary staff for 3 days. Beginning in week 1, animals in all three groups were challenged by the intrarectal route with 1 ml of RPMI containing the specified dilution of a 3.62 × 10^3 TCID50 SHIV-SF162P3 stock. At each respective time point, the challenges were performed on the same day, using the same virus stock and inoculation method across the three groups. Whole blood was collected and processed into plasma and PBMCs as necessary to assess routine haematology, clinical chemistry, viral load and serology as well as for bioanalysis of drug levels. The animals were considered to be protected if they remained SHIV negative by plasma PCR assay and seronegative by enzyme immunoassay throughout the 15-week challenge phase and the 9-week follow-up.
Rhesus plasma samples were stored frozen at −80 °C.

CC(C)(C#Cc1ccc(-c2ccc(Cl)c3c(NS(=O)(=O)C4CC4)nn(CC(F)F)c23)c([C@H](Cc2cc(F)cc(F)c2)NC(=O)Cn2nc(C(F)F)c3c2C(F)(F)[C@@H]2C[C@H]32)n1)S(C)(=O)=O [GS-CA1]
Plasma GS-CA1 (GS-CA1 150mg/kg, Week 1, individual animals, 150 mg/kg): 899.55 nM and 682.28 nM and 607.28 nM and 3112.4 nM and 2515.88 nM and 761.71 nM and 881.7 nM and 687.72 nM
Plasma GS-CA1 (GS-CA1 150mg/kg, Week 2, individual animals, 150 mg/kg): 1188.65 nM and 785.09 nM and 1097.4 nM and 2107.99 nM and 2027.37 nM and 1058.77 nM and 1219.47 nM and 772.74 nM
Plasma GS-CA1 (GS-CA1 150mg/kg, Week 3, individual animals, 150 mg/kg): 497.91 nM and 268.8 nM and 333.73 nM and 751.15 nM and 1370.65 nM and 334.48 nM and 208.6 nM and 196.6 nM
Plasma GS-CA1 (GS-CA1 150mg/kg, Week 4, individual animals, 150 mg/kg): 153.01 nM and 236.71 nM and 181.28 nM and 538.14 nM and 447.86 nM and 225.23 nM and 165.1 nM and 67.54 nM
Plasma GS-CA1 (GS-CA1 150mg/kg, Week 5, individual animals, 150 mg/kg): 181.45 nM and 86.54 nM and 202.79 nM and 333.46 nM and 449.04 nM and 141.28 nM and 113.5 nM and 95.4 nM
Plasma GS-CA1 (GS-CA1 150mg/kg, Week 6, individual animals, 150 mg/kg): 238.73 nM and 84.2 nM and 202.04 nM and 164.24 nM and 313.35 nM and 81.89 nM and 78.22 nM and 94.45 nM
Plasma GS-CA1 (GS-CA1 150mg/kg, Week 7, individual animals, 150 mg/kg): 104 nM and 58.28 nM and 136.23 nM and 139.14 nM and 249.92 nM and 68.8 nM and 45.78 nM and 64.92 nM
Plasma GS-CA1 (GS-CA1 150mg/kg, Week 8, individual animals, 150 mg/kg): 126.07 nM and 152.23 nM and 170.61 nM and 117.65 nM and 160.15 nM and 80.45 nM and 55.63 nM and 81.64 nM
Plasma GS-CA1 (GS-CA1 150mg/kg, Week 9, individual animals, 150 mg/kg): 74.21 nM and 60.58 nM and 79.54 nM and 80.39 nM and 134.53 nM and 64.84 nM and 24.54 nM and 26.69 nM
Plasma GS-CA1 (GS-CA1 150mg/kg, Week 10, individual animals, 150 mg/kg): 50.06 nM and 64.16 nM and 94.96 nM and 71.29 nM and 143.77 nM and 40.65 nM and 34.92 nM and 30.22 nM
Plasma GS-CA1 (GS-CA1 150mg/kg, Week 11, individual animals, 150 mg/kg): 28.74 nM and 29.18 nM and 53.1 nM and 51.13 nM and 71.46 nM and 23.98 nM and 12.35 nM and 18.52 nM
Plasma GS-CA1 (GS-CA1 150mg/kg, Week 12, individual animals, 150 mg/kg): 46.73 nM and 64.14 nM and 60.15 nM and 56 nM and 122.09 nM and 35.07 nM and 15.87 nM and 20.76 nM
Plasma GS-CA1 (GS-CA1 150mg/kg, Week 13, individual animals, 150 mg/kg): 44.36 nM and 69.19 nM and 42.95 nM and 48.2 nM and 62.92 nM and 42.14 nM and 9.51 nM and 14.42 nM
Plasma GS-CA1 (GS-CA1 150mg/kg, Week 14, individual animals, 150 mg/kg): 34.07 nM and 37.18 nM and 42.14 nM and 41.88 nM and 89.43 nM and 23.2 nM and 7 nM and 12.98 nM
Plasma GS-CA1 (GS-CA1 150mg/kg, Week 15, individual animals, 150 mg/kg): 17.38 nM and 37.73 nM and 25.05 nM and 38.57 nM and 44.35 nM and 22.39 nM and 4.16 nM and 9.5 nM
Plasma GS-CA1 (GS-CA1 150mg/kg, Week 16, individual animals, 150 mg/kg): 12.74 nM and 17.69 nM and 12.49 nM and 11.32 nM and 27.66 nM and 12.82 nM and 1.61 nM and 6.13 nM
Plasma GS-CA1 (GS-CA1 150mg/kg, Week 17, individual animals, 150 mg/kg): 16.54 nM and 20.95 nM and 14.29 nM and 11.67 nM and 20.8 nM and 13.83 nM and 1.22 nM and 5.08 nM
Plasma GS-CA1 (GS-CA1 150mg/kg, Week 18, individual animals, 150 mg/kg): 11.37 nM and 21.96 nM and 14.77 nM and 17.45 nM and 26.6 nM and 9.89 nM and 1.7 nM and 4.55 nM
Plasma GS-CA1 (GS-CA1 150mg/kg, Week 19, individual animals, 150 mg/kg): 19.32 nM and 31.14 nM and 16.18 nM and 26.67 nM and 23.66 nM and 14.78 nM and 2.45 nM and 4.87 nM
Plasma GS-CA1 (GS-CA1 150mg/kg, Week 20, individual animals, 150 mg/kg): 17.47 nM and 23.39 nM and 12.31 nM and 15.93 nM and 26.89 nM and 11.3 nM and 1.35 nM and 3.73 nM
Plasma GS-CA1 (GS-CA1 150mg/kg, Week 21, individual animals, 150 mg/kg): 4.49 nM and 6.46 nM and 2.59 nM and 3.91 nM and 7.83 nM and 3.15 nM and 1 nM
Plasma GS-CA1 (GS-CA1 150mg/kg, Week 22, individual animals, 150 mg/kg): 3.38 nM and 6.86 nM and 2.53 nM and 2 nM and 5.84 nM and 1.85 nM and 1 nM
Plasma GS-CA1 (GS-CA1 150mg/kg, Week 23, individual animals, 150 mg/kg): 2.14 nM and 3.4 nM and 1.2 nM and 1.06 nM and 3.85 nM and 1.48 nM and 1 nM
Plasma GS-CA1 (GS-CA1 150mg/kg, Week 24, individual animals, 150 mg/kg): 4.67 nM and 4.61 nM and 1.83 nM and 2.28 nM and 3.82 nM and 2.11 nM and 1 nM
Plasma GS-CA1 (GS-CA1 300mg/kg, Week 1, individual animals, 300 mg/kg): 6745.1 nM and 5527.81 nM and 3173.56 nM and 2250.56 nM and 1571.81 nM and 7818.17 nM and 2215.11 nM and 1943.85 nM
Plasma GS-CA1 (GS-CA1 300mg/kg, Week 2, individual animals, 300 mg/kg): 5020.82 nM and 1944.23 nM and 2465.66 nM and 1332.35 nM and 2066.12 nM and 3982.53 nM and 1948.63 nM and 1830.01 nM
Plasma GS-CA1 (GS-CA1 300mg/kg, Week 3, individual animals, 300 mg/kg): 1253.58 nM and 941.93 nM and 1003.46 nM and 894.45 nM and 508.47 nM and 1653.88 nM and 632.49 nM and 741.55 nM
Plasma GS-CA1 (GS-CA1 300mg/kg, Week 4, individual animals, 300 mg/kg): 743.3 nM and 863.19 nM and 663.58 nM and 529.86 nM and 358.71 nM and 724.82 nM and 416.16 nM and 362.21 nM
Plasma GS-CA1 (GS-CA1 300mg/kg, Week 5, individual animals, 300 mg/kg): 556.02 nM and 402.12 nM and 486.51 nM and 395.27 nM and 265.76 nM and 522.82 nM and 267.83 nM and 377.26 nM
Plasma GS-CA1 (GS-CA1 300mg/kg, Week 6, individual animals, 300 mg/kg): 395.92 nM and 369.69 nM and 282.5 nM and 382.44 nM and 161.43 nM and 241.65 nM and 272.87 nM and 350.17 nM
Plasma GS-CA1 (GS-CA1 300mg/kg, Week 7, individual animals, 300 mg/kg): 342.71 nM and 179.75 nM and 260.83 nM and 339.37 nM and 180.41 nM and 131.88 nM and 157.56 nM and 306.88 nM
Plasma GS-CA1 (GS-CA1 300mg/kg, Week 8, individual animals, 300 mg/kg): 287.02 nM and 209.19 nM and 239.58 nM and 319.17 nM and 140.45 nM and 378.49 nM and 155.27 nM and 225.76 nM
Plasma GS-CA1 (GS-CA1 300mg/kg, Week 9, individual animals, 300 mg/kg): 146.99 nM and 126.8 nM and 131.46 nM and 82.73 nM and 87.54 nM and 177.38 nM and 103.79 nM and 122.13 nM
Plasma GS-CA1 (GS-CA1 300mg/kg, Week 10, individual animals, 300 mg/kg): 131 nM and 72.85 nM and 69.86 nM and 54.53 nM and 98.13 nM and 116.65 nM and 106.49 nM and 114.46 nM
Plasma GS-CA1 (GS-CA1 300mg/kg, Week 11, individual animals, 300 mg/kg): 96.21 nM and 31.54 nM and 50.2 nM and 50.03 nM and 60.16 nM and 93.91 nM and 52.24 nM and 72.29 nM
Plasma GS-CA1 (GS-CA1 300mg/kg, Week 12, individual animals, 300 mg/kg): 52.67 nM and 93.47 nM and 85.26 nM and 65.93 nM and 84.23 nM and 74.51 nM and 101.46 nM
Plasma GS-CA1 (GS-CA1 300mg/kg, Week 13, individual animals, 300 mg/kg): 66.2 nM and 32.01 nM and 73.76 nM and 74.07 nM and 43.01 nM and 66.16 nM and 46.75 nM and 76.93 nM
Plasma GS-CA1 (GS-CA1 300mg/kg, Week 14, individual animals, 300 mg/kg): 62.7 nM and 39.51 nM and 82.73 nM and 93.72 nM and 44.99 nM and 84.64 nM and 41.4 nM and 86.17 nM
Plasma GS-CA1 (GS-CA1 300mg/kg, Week 15, individual animals, 300 mg/kg): 31.84 nM and 47.7 nM and 47.41 nM and 46.82 nM and 46.22 nM and 29.22 nM and 49.88 nM
Plasma GS-CA1 (GS-CA1 300mg/kg, Week 16, individual animals, 300 mg/kg): 26.06 nM and 21.9 nM and 27.7 nM and 23.64 nM and 20.26 nM and 34.03 nM and 14.71 nM and 29.78 nM
Plasma GS-CA1 (GS-CA1 300mg/kg, Week 17, individual animals, 300 mg/kg): 22.7 nM and 16.57 nM and 27.76 nM and 26.06 nM and 20.51 nM and 24.33 nM and 12.8 nM and 38.1 nM
Plasma GS-CA1 (GS-CA1 300mg/kg, Week 18, individual animals, 300 mg/kg): 33.14 nM and 13.56 nM and 30.17 nM and 25.35 nM and 35.49 nM and 27.53 nM and 17.91 nM and 47.6 nM
Plasma GS-CA1 (GS-CA1 300mg/kg, Week 19, individual animals, 300 mg/kg): 41.41 nM and 14.88 nM and 69.82 nM and 46.95 nM and 28.95 nM and 44.98 nM and 17.38 nM and 40.91 nM
Plasma GS-CA1 (GS-CA1 300mg/kg, Week 20, individual animals, 300 mg/kg): 25.1 nM and 13.16 nM and 46.61 nM and 34.18 nM and 32.72 nM and 41.86 nM and 12.28 nM and 43.8 nM
Plasma GS-CA1 (GS-CA1 300mg/kg, Week 21, individual animals, 300 mg/kg): 13.1 nM and 4.74 nM and 11.2 nM and 9.27 nM and 9.56 nM and 8.58 nM and 3.77 nM and 14.4 nM
Plasma GS-CA1 (GS-CA1 300mg/kg, Week 22, individual animals, 300 mg/kg): 9.23 nM and 3.77 nM and 10.4 nM and 6.6 nM and 9.38 nM and 8.89 nM and 3.44 nM and 9.91 nM
Plasma GS-CA1 (GS-CA1 300mg/kg, Week 23, individual animals, 300 mg/kg): 7.16 nM and 2.69 nM and 7.58 nM and 5.41 nM and 6.2 nM and 5.6 nM and 1.57 nM and 9.56 nM
Plasma GS-CA1 (GS-CA1 300mg/kg, Week 24, individual animals, 300 mg/kg): 6.55 nM and 2.72 nM and 10.3 nM and 5.77 nM and 6.9 nM and 7.12 nM and 1.32 nM and 10.7 nM
